Assay results as given in the supplement of paper PMC8256030.
Where “and” joins values, the source holds several entries; their conditions need not be identical. Identical values can stand only once. Counter-ions that a name gives are not always drawn. This is one part of the list. Single values are uncertain here, since repeats match poorly.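 HEK293T cells were given each compound shortly before transfection with a reporter in which red mCherry is followed by the SARS-CoV-2 frameshift element and then GFP in the −1 frame, so GFP appears only after frameshifting.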

Test system: HEK293T
Assay: percent viability (nuclei count) relative to control; higher = more viable cells
Conditions: 10 µM; 24 h

How did the percent viability turn out when `O=C(Oc1ccc2c(c1)CCCN2C(=O)C(Cl)Cl)c1ccco1` [quinfamide] was run?
Its percent viability is 434%.

`CCC(=O)NC[C@@H]1C[C@H]1c1cccc2c1CCO2` [Tasimelteon] was tested. Which percent viability did it give?
Its percent viability is 297%.

For `C[C@](N)(Cc1ccc(O)c(O)c1)C(=O)O` [Methyldopa], which percent viability is on record?
Its percent viability is 203%.

How did the percent viability turn out when `O=C1c2ccccc2C(=O)C1c1ccc(Cl)cc1` [clorindione] was run?
The percent viability was 278%.

`C[C@H](C(=O)O)c1ccc(-c2ccccc2)c(F)c1` [esflurbiprofen] was tested. Which percent viability did it give?
The percent viability was 365%.

For `CC(C)CN(C[C@@H](O)[C@H](Cc1ccccc1)NC(=O)O[C@H]1CO[C@H]2OCC[C@H]21)S(=O)(=O)c1ccc(N)cc1` [darunavir], which percent viability is on record?
The percent viability was 213%.

Which percent viability does the source give for `CCC[C@H](N[C@@H](C)C(=O)N1[C@H](C(=O)O)C[C@@H]2CCCC[C@@H]21)C(=O)O` [perindoprilat] here?
The percent viability was 75.1%.

`CN(C)CC/C=C1\c2ccccc2CSc2ccccc21` [dosulepin] was tested. Which percent viability did it give?
The percent viability was 185%.

Which percent viability does the source give for `Cc1[nH]cnc1CN1CCc2c(c3ccccc3n2C)C1=O` [alosetron] here?
Its percent viability is 29.6%.

`Nc1nc(OCc2cc(Br)cs2)c2[nH]cnc2n1` [lomeguatrib] was tested. Which percent viability did it give?
Its percent viability is 86.8%.

How did the percent viability turn out when `Nc1ccc(S(N)(=O)=O)cc1` [sulfanilamide] was run?
Its percent viability is 329%.

With `COC(=O)Nc1nc2cc([S+]([O-])c3ccccc3)ccc2[nH]1` (centres undefined) [Oxfendazole] as the compound, how does the percent viability read?
The percent viability was 114%.

For `CCC(=O)OCC(=O)[C@@]1(OC(=O)CC)[C@@H](C)C[C@H]2[C@@H]3CCC4=CC(=O)C=C[C@]4(C)[C@@]3(Cl)[C@@H](O)C[C@@]21C`, which percent viability is on record?
The percent viability was 329%.

How did the percent viability turn out when `Nc1ncnc(Nc2ccc(Cl)cc2)n1` was run?
Its percent viability is 399%.

How did the percent viability turn out when `NC(=O)CC(N)C(=O)O` (centres undefined) was run?
Its percent viability is 162%.

For `CC(C(O)c1ccc(O)cc1)N1CCC(Cc2ccccc2)CC1` (centres undefined) [Ifenprodil tartrate], which percent viability is on record?
Its percent viability is 142%.

`COc1ccc2c(c1)c(-c1ccccc1)nc(=O)n2CC1CC1` [ciproquazone] was tested. Which percent viability did it give?
The percent viability was 188%.

For `CCN(CCCc1ccccc1)CCCc1ccccc1`, which percent viability is on record?
Its percent viability is 34.1%.

`CC(=O)NCCCS(=O)(=O)O` was tested. Which percent viability did it give?
The percent viability was 214%.

For `CC(=O)SC[C@@H](C)C(=O)N1CCC[C@H]1C(=O)N[C@@H](Cc1ccccc1)C(=O)O` [alacepril], which percent viability is on record?
Its percent viability is 101%.

How did the percent viability turn out when `CCCCC(F)(F)[C@@]1(O)CC[C@H]2[C@@H](CC(=O)[C@@H]2CCCCCCC(=O)O)O1` [lubiprostone] was run?
The percent viability was 211%.

Which percent viability does the source give for `Clc1ccccc1CN1CCc2sccc2C1` [ticlopidine] here?
The percent viability was 193%.

With `CC(C)CN(C[C@@H](OP(=O)(O)O)[C@H](Cc1ccccc1)NC(=O)O[C@H]1CCOC1)S(=O)(=O)c1ccc(N)cc1` [fosamprenavir] as the compound, how does the percent viability read?
Its percent viability is 268%.

With `CC(C)c1nc(N(C)S(C)(=O)=O)nc(-c2ccc(F)cc2)c1/C=C/[C@@H](O)C[C@@H](O)CC(=O)O` as the compound, how does the percent viability read?
Its percent viability is 302%.

For `C[C@@H]1CN(c2c(F)c(F)c3c(=O)c(C(=O)O)cn(C4CC4)c3c2F)C[C@H](C)N1` [orbifloxacin], which percent viability is on record?
Its percent viability is 300%.

Which percent viability does the source give for `CNC(=O)[C@@H](NC(=O)[C@H](CC(C)C)[C@H](O)C(=O)NO)C(C)(C)C` [Marimastat] here?
The percent viability was 199%.

`CSCC[C@H](NC(=O)[C@H](Cc1c[nH]c2ccccc12)NC(=O)CCNC(=O)OC(C)(C)C)C(=O)N[C@@H](CC(=O)O)C(=O)N[C@@H](Cc1ccccc1)C(N)=O` [pentagastrin] was tested. Which percent viability did it give?
Its percent viability is 164%.

With `CN1c2cc(O)c(N=NC(N)=O)cc2CC1S(=O)(=O)O` (centres undefined) [carbazochrome sodium sulfonate] as the compound, how does the percent viability read?
Its percent viability is 107%.

For `O=c1[nH]c2ccccc2c(=O)n1CCCN1CCN(c2ccccc2)CC1` [pelanserin], which percent viability is on record?
Its percent viability is 174%.

With `CC/C(=C(\c1ccccc1)c1ccc(OCCN(C)C)cc1)c1ccccc1` [tamoxifen] as the compound, how does the percent viability read?
The percent viability was 189% and 256% and 251%.

Which percent viability does the source give for `CC(C)NC[C@H](O)c1ccc(O)c(O)c1` [levisoprenaline] here?
Its percent viability is 176%.

For `O=C1c2ccccc2C(=O)C1c1ccc(Br)cc1` [bromindione], which percent viability is on record?
The percent viability was 294%.

With `NC(=O)CN1Cc2ccccc2OC1=O` [caroxazone] as the compound, how does the percent viability read?
Its percent viability is 178%.

How did the percent viability turn out when `Cc1oncc1C(=O)Nc1ccc(C(F)(F)F)cc1` [leflunomide] was run?
Its percent viability is 254% and 179%.

How did the percent viability turn out when `CC(=O)OCC(=O)[C@@]12N=C(C)O[C@@H]1C[C@H]1[C@@H]3CCC4=CC(=O)C=C[C@]4(C)[C@H]3[C@@H](O)C[C@@]12C` was run?
Its percent viability is 149%.

How did the percent viability turn out when `CN1C2CCCC1CC(NC(=O)c1nn(C)c3ccccc13)C2` (centres undefined) [Granisetron] was run?
Its percent viability is 270%.

For `OCCN1CCN(CC/C=C2/c3ccccc3Sc3ccc(Cl)cc32)CC1` [Zuclopenthixol], which percent viability is on record?
The percent viability was 448%.

`NC[C@H](O)c1ccc(O)c(O)c1` [Norepinephrine] was tested. Which percent viability did it give?
The percent viability was 156%.

For `C[N+]1(C)CCC(OC(=O)C(O)(c2ccccc2)C2CCCC2)C1` (centres undefined) [glycopyrronium bromide], which percent viability is on record?
The percent viability was 138%.
